Experimental data: paper PMC4731787, “Structural basis for the recognition of two consecutive mutually interacting DPF motifs by the SGIP1 μ homology domain” (Scientific Reports, 2016)

System: α-adaptin appendage domain (residues 711 to 955)
Test: ITC of Eps15 fragments with the α-adaptin appendage domain
Type: binding, human
Conditions: single-site model, ± 68.3% confidence interval

Molecule | N (binding ratio of Eps15 fragment to α-adaptin appendage domain)
Eps15-661–720: Eps15 fragment spanning residues 661 to 720, 4 DPF motifs (QSTDPFATSSTDPFSAANNSSITSVETLKHNDPFAPGGTVVAASDSATDPFASVFGNESF; UniProt P42566 661-720, looked up, fragment) | 0.47 ± 0.04
Eps15-661–790 (domain or fragment, human, UniProt P42566-1 661-790, looked up, Eps15, human, residues 661-790 (limits from the fragment's name); source: E. coli, purified in the same manner as for the SGIP1 μHD) QSTDPFATSSTDPFSAANNSSITSVETLKHNDPFAPGGTVVAASDSATDPFASVFGNESFGGGFADFSTLSKVNNEDPFRSATSSSVSNVVITKNVFEETSVKSEDEPPALPPKIGTPTRPCPLPPGKRS | 1.19 ± 0.01
